Values from PubChem BioAssay AID493246 (Drosophila RNAi Screening Center, 2011)
Purpose: 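Genes fly cells need to grow and stay alive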 (primary screen). Cell system: Drosophila Kc and S2R+ cells. Reagents: long dsRNA against Drosophila genes. Detection: 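Cell number per well after knock-down, printed as raw plate values; calls were based on per-plate z-scores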. Direction: Kc cell number and S2R+ cell number: higher = more cells remaining. Active means: 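Active when the per-plate z-score of cell number is 3 or more in the direction of fewer cells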.
In all, the deposit lists about 21,000 reagents; below is an unselected part of those that have a named target and a result. In the full data, 429 (2%) were called active. 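Values are raw and not normalised between plates; calls rest on per-plate z-scores that were not deposited.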 Entries without a mark were called inactive. Not given: the amount of reagent, the time to read-out.

The first 2 entries, to show the layout:
predicted target | DRSC id | Kc cell number, rep 1 | Kc cell number, rep 2 | S2R+ cell number, rep 1 | S2R+ cell number, rep 2
CG13245 | DRSC02243 | 1.38e6 | 1.36e6 | 1.34e6 | 1.33e6
Arglu1 (Arginine and glutamate rich 1) | DRSC02909 | 1.53e6 | 1.56e6 | 1.34e6 | 1.49e6

Main list, from the start:
predicted target | DRSC id | Kc cell number, rep 1 | Kc cell number, rep 2 | S2R+ cell number, rep 1 | S2R+ cell number, rep 2
CG13245 | DRSC02243 | 1.38e6 | 1.36e6 | 1.34e6 | 1.33e6
Arglu1 (Arginine and glutamate rich 1) | DRSC02909 | 1.53e6 | 1.56e6 | 1.34e6 | 1.49e6
Rx (Retinal Homeobox) | DRSC03837 | 5.18e5 | – | 8.24e5 | –
Rx (Retinal Homeobox) | DRSC04652 | 1.69e6 | 1.87e6 | 1.41e6 | 3.93e5
Est-P (Esterase P) | DRSC11163 | 1.29e6 | 1.21e6 | 1.33e6 | 1.39e6
Arpc5 (Actin-related protein 2/3 complex, subunit 5) | DRSC00730 | 1.41e6 | 1.42e6 | 1.00e6 | 1.21e6
CG13562 | DRSC04200 | 1.87e6 | 1.92e6 | 1.33e6 | 1.38e6
RpL29 (Ribosomal protein L29) | DRSC04650 | 1.47e6 | 1.55e6 | 1.25e6 | 3.01e5
AlaRS-m (Alanyl-tRNA synthetase, mitochondrial) | DRSC09660 | 1.39e6 | 1.41e6 | 1.37e6 | 1.23e6
twf (twinfilin) | DRSC15466 | 1.50e6 | 1.56e6 | 1.30e6 | 1.30e6
CG15366 (retired record) | DRSC18039 | 1.69e6 | 1.39e6 | 1.15e6 | 1.31e6
Rpi (Ribose-5-phosphate isomerase) | DRSC04583 | 1.66e6 | 1.70e6 | 1.27e6 | 1.38e6
CG15201 | DRSC19648 | 1.55e6 | 1.60e6 | 1.09e6 | 1.27e6
RAF2 (RING-associated factor 2) | DRSC10443 | 1.61e6 | 1.64e6 | 1.39e6 | 1.47e6
RAF2 (RING-associated factor 2) | DRSC10454 | 1.44e6 | 1.49e6 | 1.16e6 | 1.26e6
Dph4 (Diphthamide biosynthesis 4) | DRSC12318 | 1.42e6 | 1.45e6 | 1.26e6 | 1.33e6
CG10444 | DRSC05990 | 1.35e6 | 1.39e6 | 1.16e6 | 1.20e6
CG14391 | DRSC14850 | 1.49e6 | 1.59e6 | 1.37e6 | 1.50e6
CG34050 (retired record) | DRSC09067 | 1.07e6 (active) | 1.04e6 | 6.76e5 | 8.55e5
mRpL47 (mitochondrial ribosomal protein L47) | DRSC16827 | 1.42e6 | 1.38e6 | 9.51e5 | 1.11e6
CG4364 | DRSC02742 | 1.11e6 | 1.22e6 | 1.19e6 | 1.12e6
Hsc70-4 (Heat shock protein 70 cognate 4) | DRSC16711 | 1.01e6 | 1.04e6 | 6.89e5 | 7.88e5
REPTOR (Repressed by TOR) | DRSC14626 | 1.42e6 | 1.55e6 | 1.16e6 | 1.20e6
Arpc1 (Actin-related protein 2/3 complex, subunit 1) | DRSC03438 | 1.21e6 | 1.29e6 | 1.14e6 | 1.20e6
dpr13 (defective proboscis extension response 13) | DRSC06160 | 1.58e6 | 1.69e6 | 1.25e6 | 1.39e6
dpr13 (defective proboscis extension response 13) | DRSC06464 | 1.60e6 | 1.72e6 | 1.30e6 | 1.42e6
Dyrk3 (Dual-specificity tyrosine phosphorylation-regulated kinase 3) | DRSC21055 | 1.54e6 | 1.52e6 | 1.03e6 | 1.13e6
Hsp60A (Heat shock protein 60A) | DRSC20254 | 6.21e5 | – | 9.20e5 | –
dnk (deoxyribonucleoside kinase) | DRSC16933 | 1.25e6 | 1.33e6 | 8.87e5 | 9.65e5
Irk2 (Inwardly rectifying potassium channel 2) | DRSC15569 | 1.56e6 | 1.67e6 | 1.21e6 | 1.37e6
CG12236 | DRSC17830 | 1.73e5 (active) | – | 3.31e5 | –
CG12236 | DRSC17831 | 1.52e6 | 1.47e6 | 1.12e6 | 1.18e6
CG15445 | DRSC20517 | 1.47e6 | 1.45e6 | 8.30e5 | 9.65e5
CG14020 | DRSC02350 | 1.50e6 | 1.38e6 | 1.13e6 | 1.24e6
RhoGAP54D (Rho GTPase activating protein at 54D) | DRSC06990 | 1.58e6 | 1.70e6 | 1.15e6 | 1.30e6
CG13670 | DRSC10029 | 1.58e6 | 1.53e6 | 1.23e6 | 1.24e6
CG12814 | DRSC14552 | 1.60e6 | 1.66e6 | 1.28e6 | 1.38e6
CG12814 | DRSC14553 | 1.66e6 | 1.61e6 | 1.22e6 | 1.26e6
SF2 (Splicing factor 2) | DRSC16845 | 1.36e6 | 1.35e6 | 9.24e5 | 1.04e6
Sou (Souji) | DRSC04356 | 1.58e6 | 1.77e6 | 1.39e6 | 3.97e5
opm (opossum) | DRSC20141 | 5.60e5 | – | 8.09e5 | –
CG7560 | DRSC10879 | 1.42e6 | 1.60e6 | 1.26e6 | 1.34e6
CG8508 | DRSC16436 | 1.62e6 | 1.69e6 | 1.38e6 | 1.48e6
CG5885 | DRSC02910 | 1.25e6 | 1.29e6 | 1.19e6 | 1.23e6
CG7126 | DRSC16201 | 1.32e6 | 1.31e6 | 1.04e6 | 1.12e6
CG5707 | DRSC08573 | 1.54e6 | 1.71e6 | 1.15e6 | 1.21e6
CG14186 | DRSC10185 | 1.51e6 | 1.56e6 | 1.35e6 | 1.35e6
CG31344 | DRSC16069 | 1.18e6 | 1.22e6 | 1.13e6 | 1.29e6
bru2 (bruno 2) | DRSC01246 | 1.57e6 | 1.74e6 | 1.09e6 | 1.23e6
bru2 (bruno 2) | DRSC01247 | 1.18e6 | 1.34e6 | 7.61e5 | 9.01e5
bru2 (bruno 2) | DRSC01249 | 1.52e6 | 1.67e6 | 1.06e6 | 1.17e6
bru2 (bruno 2) | DRSC01250 | 1.59e6 | 1.66e6 | 1.09e6 | 1.25e6
bru2 (bruno 2) | DRSC02557 | 1.03e6 (active) | 1.08e6 | 8.00e5 | 8.79e5
CG1116 | DRSC12166 | 1.68e6 | 1.87e6 | 1.26e6 | 1.35e6
simj (simjang) | DRSC10942 | 1.16e6 | 1.40e6 | 1.29e6 | 8.81e5
CG30496 | DRSC06805 | 1.42e6 | 1.61e6 | 1.10e6 | 9.99e5
Sas-6 (Spindle assembly abnormal 6) | DRSC15061 | 1.51e6 | 1.59e6 | 1.06e6 | 1.22e6
CG33500 | DRSC09115 | 1.47e6 | 1.56e6 | 7.83e5 | 1.07e6
HDAC6 (Histone deacetylase 6) | DRSC20252 | 5.47e5 | – | 8.45e5 | –
